{"sequences": {"note": "Protein sequences, listed by entry. Tags and fused reporters are not part of them.", "UniProt P20263, whole entry": "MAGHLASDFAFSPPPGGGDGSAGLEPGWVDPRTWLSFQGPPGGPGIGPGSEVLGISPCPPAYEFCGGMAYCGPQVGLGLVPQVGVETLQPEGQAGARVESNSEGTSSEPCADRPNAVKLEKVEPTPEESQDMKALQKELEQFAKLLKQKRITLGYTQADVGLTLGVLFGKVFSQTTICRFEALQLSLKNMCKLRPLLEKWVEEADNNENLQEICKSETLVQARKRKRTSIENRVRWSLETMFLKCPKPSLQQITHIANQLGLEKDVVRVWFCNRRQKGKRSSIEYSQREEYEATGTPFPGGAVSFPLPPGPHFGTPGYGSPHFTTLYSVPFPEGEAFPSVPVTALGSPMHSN"}, "source": "paper PMC9561370", "target": "Oct4 (Mus musculus) (UniProt P20263)", "experiment": "competition with a labelled probe", "conditions": "9-90 nM competitor vs 9 nM ESRRB nucleosome, 67.5 nM Oct4, 5 min; 25 mM HEPES pH 7.6, 50 mM NaCl, 0.5 mM EDTA, 1 ug/ul BSA, 0.8 mM DTT, 10% glycerol, 25 C, 1 h; 20 nM nucleosome, 0.05-0.4 uM Oct4; recombinant protein; protein details: pOPIN-cHis, 3C protease cleaved on TALON column", "note": "For at least one entry, the source does not settle the construct or the ends of the probe. At least one verdict was read from the data and is not stated in words by the source.", "data": [{"sequence": "AAGTGATAGTTATGCAGAGCGAATGGAGGG (double strand) [ESRRB specific competitor oligo]", "values": [{"measurement": "binding result", "value": "binds"}]}]}
